Reference: PMC12149670

Chains of the proteins cited; added tags and fusions are not shown.
UniProt P56546: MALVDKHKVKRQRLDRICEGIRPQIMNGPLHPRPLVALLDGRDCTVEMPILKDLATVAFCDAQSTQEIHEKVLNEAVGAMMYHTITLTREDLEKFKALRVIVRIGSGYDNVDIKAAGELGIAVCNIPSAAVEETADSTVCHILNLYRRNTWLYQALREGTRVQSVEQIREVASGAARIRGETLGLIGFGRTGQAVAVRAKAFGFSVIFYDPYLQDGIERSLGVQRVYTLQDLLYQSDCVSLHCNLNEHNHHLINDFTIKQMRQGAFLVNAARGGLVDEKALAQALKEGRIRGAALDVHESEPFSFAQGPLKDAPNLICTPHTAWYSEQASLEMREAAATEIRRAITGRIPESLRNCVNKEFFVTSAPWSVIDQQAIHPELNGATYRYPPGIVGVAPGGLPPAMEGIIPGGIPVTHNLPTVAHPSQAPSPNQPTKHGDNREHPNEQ

Target: C-terminal binding protein 2 (CTBP2), endogenous in murine BMDMs (mouse (endogenous in BMDMs)) (UniProt P56546)
Experiment: affinity purification with mass spectrometry; ChIP-MS: BMDMs treated with LPS (100 ng/ml, 3 h) or vehicle, fixed with 2 mM DSG and 1% formaldehyde, sonicated chromatin precipitated with anti-CTBP2 (#61261; Active Motif) against an IgG control; washes with 140 mM and 500 mM NaCl buffers; enriched: fold change > 4 and Padj < 0.05; n = 3

B1: NFΚBIZ (protein, UniProt Q9EST8 1-728)
chain: MIVDKLLDDSRGGEGLLDAAGDCGLMTSPLNLAYFYGASPPSAPGAGDTGYLSAVPSAPGSPGSDSSDFSSTSSVSSCGAVESRPRGGARAERPQVEPHMGVGRQQRGPFQGVRVKNSVKELLLHIRSNKQKASGQPVDEFKTQSVNIEQLTDLKSAVSAVGKRKGPDPLSDGPVCKRPALLPSHFVTSPQTPTPGESMEDVRHSESKLDSSAALLQNIINIKNECNPVSLNTVQVSWMSPTVPQNSPRDQCQDFHGGQAFSPPQKYQPFQVSGSPQMMDQASMYQYSPQTQNMQQPPPLPPQQQHQQNYPHNSPLQFSPYSRMSQSPKYDSNLFDTHEPQFCTGQSFVSLLTGPGEPESLAVPVPAPTSIPPQTETQLQTFSLMPSNACEAVVGVHDVGSHSLGTSLSLQNIMGSPMNTTQLGKSFFQWQVEQEESKLANIPQDQFLARDGDGDTFLHIAVAQGRRALSYVLARKMNALHMLDIKEHNGQSAFQVAVAANQHLIVQDLVNLGAQVNTTDCWGRTPLHVCAEKGHSQVLQAIQKGAVRSNQFVDLEATNYDGLTPLHCAVVAHNAVVHELQRNRQSHSPEVQDLLLRNKSLVDTIKCLIQMGAAVEAKDRKSGRTALHLAAEEANLELIRLFLELPSCLSFVNAKAYNGNTALHVAASLQYRVTQLDAVRLLMRKGADPSTRNLENEQPVHLVPDGPVGEQIRRILKGKSIQQRAPPY
  binding: binds

B2: JUNB, endogenous in murine BMDMs (protein, UniProt P09450 1-344)
chain: MCTKMEQPFYHDDSYAAAGYGRSPGSLSLHDYKLLKPTLALNLADPYRGLKGPGARGPGPEGSGAGSYFSGQGSDTGASLKLASTELERLIVPNSNGVITTTPTPPGQYFYPRGGGSGGGTGGGVTEEQEGFADGFVKALDDLHKMNHVTPPNVSLGASGGPQAGPGGVYAGPEPPPVYTNLSSYSPASAPSGGSGTAVGTGSSYPTATISYLPHAPPFAGGHPAQLGLSRGASAFKEEPQTVPEARSRDATPPVSPINMEDQERIKVERKRLRNRLAATKCRKRKLERIARLEDKVKTLKAENAGLSSAAGLLREQVAQLKQKVMTHVSNGCQLLLGVKGHAF
  binding: binds

B3: ETV3 (protein, UniProt Q8R4Z4 1-513)
chain: MKAGCSIVEKPEGGGGYQFPDWAYKAESSPGSRQIQLWHFILELLQKEEFRHVIAWQQGEYGEFVIKDPDEVARLWGRRKCKPQMNYDKLSRALRYYYNKRILHKTKGKRFTYKFNFNKLVMPNYPFINIRSSGVVPQSAPPVPTASSRFHFPPLDSHSPTGDVQPGRFSASSLSASGPESGVTTDRKVEPSDLEDGSASDWHRGMDFMPSRNALGGGAVGHQKRKPDILLPLFTRPAMYPDPHSPFAISPVPGRGGVLNVPISPALSLTPTMFSYSPSPGLSPFTSSSCFSFNPEEMKHYLHSQACSVFNYHLSPRTFPRYPGLMVPPLQCQMHPEEPSQFSIKLQPPPAGRKNRERVESREEAVRGSVPASAPVPSRIKVEPATEKDPDSLRQSTQGKEEQTQEVDSMRSRTIEEGKGTGFAHPSPTWPSVSISTPSDEPLEGTEDSEDRSVREPGVPEKKEDALMPPKLRLKRRWNDDPEARELNKTGKFLWNGAGPQGLATTATAAADA
  binding: binds

These are yes or no findings as the source states them, for the method shown. Binding seen in cells or lysates may run through a third protein. These calls come from enrichment with a bait or labelling near it, and not all partners need be listed.
